Patent publication US20120121507A1
Results are given in words; binding and its absence hold for the method and conditions named.

Legend:
[1] = biological target: epidermal growth factor receptor ectodomain; assay: SPR, EGFR-ED flowed over immobilized P3375 (1200 RUs)
[2] = biological target: epidermal growth factor receptor ectodomain; assay: SPR, EGFR-ED flowed over immobilized P3375
[3] = biological target: extracellular domain of the Type II TGF-beta receptor; assay: SPR, receptor extracellular domain flowed over immobilized P3375 (1200 RUs)
[4] = biological target: epidermal growth factor receptor ectodomain; assay: SPR, EGFR-ED flowed over immobilized P3378
[5] = biological target: epidermal growth factor receptor ectodomain; assay: SPR, EGFR-ED flowed over immobilized P3378 (500 RUs)
[6] = biological target: extracellular domain of the Type II TGF-beta receptor; assay: SPR, receptor extracellular domain flowed over immobilized P3378 (500 RUs)

| binding [1] | binding [2] | binding [3] | binding [4] | binding [5] | binding [6] | Binder |
| --- | --- | --- | --- | --- | --- | --- |
| no binding (tested: 70 nM to 5.63 µM) | no binding (tested: about 5.6 µM) | no binding (tested: 38 nM to 4.5 µM) | – | – | – | NTYWSQLLHFQTSGSGC [P3375 synthetic peptide (… with C-terminal SGSGC extension)] |
| – | – | – | no binding (tested: about 5.6 µM) | no binding (tested: 70 nM to 5.63 µM) | no binding (tested: 38 nM to 4.5 µM) | HPLSKHPYWSQPSGSGC [P3378 synthetic peptide (… with C-terminal SGSGC extension)] |
